Experimental data taken from patent publication US11840557B2, “Wnt7 variants capable of activating g-protein coupled receptor (Gpr)124/Reck/frizzled/lipoprotein receptor-related protein (LRP)-mediated Wnt signaling” (UNIVERSITÉ LIBRE DE BRUXELLES, priority 2018, dated 2023).
Changes are numbered by the printed parent chain. Names and notes keep the numbering of the source. Some of these results come from one statement about several compounds together.

Amino acid sequences for entries named in this document (tags omitted). Residues count along the entry.
UniProt O95980, 23-942 limits assumed: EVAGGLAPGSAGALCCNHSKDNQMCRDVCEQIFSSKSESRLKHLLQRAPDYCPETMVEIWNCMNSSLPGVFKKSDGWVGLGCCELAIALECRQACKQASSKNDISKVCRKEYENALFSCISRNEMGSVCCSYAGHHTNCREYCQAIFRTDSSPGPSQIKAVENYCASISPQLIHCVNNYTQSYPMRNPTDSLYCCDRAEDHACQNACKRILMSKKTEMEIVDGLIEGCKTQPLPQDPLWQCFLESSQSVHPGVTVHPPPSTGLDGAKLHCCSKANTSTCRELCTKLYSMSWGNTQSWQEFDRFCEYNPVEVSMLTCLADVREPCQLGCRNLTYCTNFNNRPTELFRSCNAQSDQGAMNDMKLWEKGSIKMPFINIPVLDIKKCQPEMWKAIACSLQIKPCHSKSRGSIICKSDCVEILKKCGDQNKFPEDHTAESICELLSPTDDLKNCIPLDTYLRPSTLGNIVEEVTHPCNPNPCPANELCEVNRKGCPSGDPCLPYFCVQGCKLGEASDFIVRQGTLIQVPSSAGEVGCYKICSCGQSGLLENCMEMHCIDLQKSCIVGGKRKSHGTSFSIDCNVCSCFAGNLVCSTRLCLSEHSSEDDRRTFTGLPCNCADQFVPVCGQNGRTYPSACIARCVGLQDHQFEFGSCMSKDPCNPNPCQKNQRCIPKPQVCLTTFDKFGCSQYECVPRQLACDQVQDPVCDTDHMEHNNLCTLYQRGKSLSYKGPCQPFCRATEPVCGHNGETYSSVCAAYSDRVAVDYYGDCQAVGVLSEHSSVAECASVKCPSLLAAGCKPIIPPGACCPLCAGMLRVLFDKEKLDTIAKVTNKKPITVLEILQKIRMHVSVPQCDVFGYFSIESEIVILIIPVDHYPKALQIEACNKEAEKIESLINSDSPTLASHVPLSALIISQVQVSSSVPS

Molecular target: T1, Gpr124/Reck/Fz/LRP (UniProt O70421+O95980)
T1 construct: host or cells: HEK293-STF cells
Assay: STF dual luciferase assay, Gpr124/Reck-dependent signaling in HEK293-STF cells
Type: cell-based
Settings: single residue variants
Procedure: Cells were plated into 96-well plates and transfected after 24 h in triplicate with Lipofectamine 2000 (Life Technologies, Carlsbad, Calif.). The amount of plasmid DNA transfected per well was optimized for each expression vector: Renilla luciferase (0.5 ng) (was kindly provided by Jeremy Nathans (John Hopkins)), Wnt ligands (20 ng), Fz receptors (5 ng), Lrp (2.5 ng), Gpr124 (10 ng), Reck (5 ng) and Dkk-1 (10 ng) unless otherwise indicated. The total amount of DNA was adjusted to 100 ng per well with the empty pCS2 vector. Dual luciferase assays were performed using the STF cell line or by co-transfecting 20 ng of M50 Super 8× TOPFlash plasmid (Addgene plasmid #12456). Cells were harvested in passive lysis buffer (E1960, Promega, Wis.) and the activities of the Firefly and Renilla luciferases were measured sequentially using the Dual-Luciferase Reporter Assay system (E1960, Promega, Madison, Wis.) 48 h post-transfection. The competition assays of FIG. 1C were performed by plating cells as a 1:1:1 mixture at 90% confluency in 96-well plates 24 h after transfection. Luciferase activity was measured 24 h after co-culture.
Cells were plated into 96-well plates and transfected after 24 h in triplicate with Lipofectamine 2000 (Invitrogen, Carlsbad, Calif.). The amount of plasmid DNA transfected per well was optimized for each expression vector: Renilla luciferase (0.5 ng), Wnt (20 ng), Fz (5 ng), LRP (2.5 ng), Gpr124 (10 ng), Reck (10 ng) unless otherwise indicated. The total amount of DNA was adjusted to 100 ng per well with the empty pCS2 vector. Cells were harvested in passive lysis buffer (E1960, Promega, Wisconsin) and the activities of the Firefly and Renilla luciferases were measured sequentially using the Dual-Luciferase Reporter Assay system (E1960, Promega, Madison, Wis.) 48 h post-transfection.

B1: F75A: single-residue variant of full-length mWnt7a (precursor numbering) (protein)
chain: LGASIICNKIPGLAPRQRAICQSRPDAIIVIGEGSQMGLDECQAQFRNGRWNCSALGERTVFGKELKVGSREAAFTYAIIAAGVAHAITAACTQGNLSDCGCDKEKQGQYHRDEGWKWGGCSADIRYGIGFAKVFVDAREIKQNARTLMNLHNNEAGRKILEENMKLECKCHGVSGSCTTKTCWTTLPQFRELGYVLKDKYNEAVHVEPVRASRNKRPTFLKIKKPLSYRKPMDTDLVYIEKSPNYCEEDPVTGSVGTQGRACNKTAPQASGCDLMCCGRGYNTHQYARVWQCNCKFHWCCYVKCNTCSERTEMYTCK
modifications: human Wnt7a variant F44A
- Gpr124/Reck/Fz/LRP-mediated Wnt signaling activity, % of wild-type mature full-length Wnt7a: at least 70%

B2: V99A: single-residue variant of full-length mWnt7a (precursor numbering) (protein)
chain: B1 chain with A44F, V68A
modifications: human Wnt7a variant V68A
- Gpr124/Reck/Fz/LRP-mediated Wnt signaling activity, % of wild-type mature full-length Wnt7a: at least 70%

B3: I160A: single-residue variant of full-length mWnt7a (precursor numbering) (protein)
chain: B1 chain with A44F, I129A
modifications: human Wnt7a variant I129A
- Gpr124/Reck/Fz/LRP-mediated Wnt signaling activity, % of wild-type mature full-length Wnt7a: at least 70%

B4: F162A: single-residue variant of full-length mWnt7a (precursor numbering) (protein)
chain: MNRKARRCLGHLFLSLGMVYLRIGGFSSVVALGASIICNKIPGLAPRQRAICQSRPDAIIVIGEGSQMGLDECQFQFRNGRWNCSALGERTVFGKELKVGSREAAFTYAIIAAGVAHAITAACTQGNLSDCGCDKEKQGQYHRDEGWKWGGCSADIRYGIGAAKVFVDAREIKQNARTLMNLHNNEAGRKILEENMKLECKCHGVSGSCTTKTCWTTLPQFRELGYVLKDKYNEAVHVEPVRASRNKRPTFLKIKKPLSYRKPMDTDLVYIEKSPNYCEEDPVTGSVGTQGRACNKTAPQASGCDLMCCGRGYNTHQYARVWQCNCKFHWCCYVKCNTCSERTEMYTCK
- Gpr124/Reck/Fz/LRP-mediated Wnt signaling activity, % of wild-type mature full-length Wnt7a: at least 70%

B5: K164A: single-residue variant of full-length mWnt7a (precursor numbering) (protein)
chain: B1 chain with A44F, K133A
modifications: human Wnt7a variant K133A
- Gpr124/Reck/Fz/LRP-mediated Wnt signaling activity, % of wild-type mature full-length Wnt7a: at least 70%

B6: I172A: single-residue variant of full-length mWnt7a (precursor numbering) (protein)
chain: B4 chain with A162F, I172A
- Gpr124/Reck/Fz/LRP-mediated Wnt signaling activity, % of wild-type mature full-length Wnt7a: at least 70%

B7: R189A: single-residue variant of full-length mWnt7a (precursor numbering) (protein)
chain: B4 chain with A162F, R189A
- Gpr124/Reck/Fz/LRP-mediated Wnt signaling activity, % of wild-type mature full-length Wnt7a: at least 70%

B8: Wnt7a^K190A: single-residue variant of full-length mWnt7a (precursor numbering); Gpr124/Reck-selective agonist (protein)
chain: B1 chain with A44F, K159A
modifications: human Wnt7a variant K159A
- Gpr124/Reck/Fz/LRP-mediated Wnt signaling activity, % of wild-type mature full-length Wnt7a: at least 70%

B9: K190L: single-residue variant of full-length mWnt7a (precursor numbering) (protein)
chain: B4 chain with A162F, K190L
- Gpr124/Reck/Fz/LRP-mediated Wnt signaling activity, % of wild-type mature full-length Wnt7a: at least 70%

B10: K212A: single-residue variant of full-length mWnt7a (precursor numbering) (protein)
chain: B4 chain with A162F, K212A
- Gpr124/Reck/Fz/LRP-mediated Wnt signaling activity, % of wild-type mature full-length Wnt7a: at least 70%

B11: Q48A: single-residue variant of full-length mWnt7a (precursor numbering) (protein)
chain: B4 chain with Q48A, A162F
- Gpr124/Reck/Fz/LRP-mediated Wnt signaling activity, % of wild-type mature full-length Wnt7a: at least 70%

B12: R222A: single-residue variant of full-length mWnt7a (precursor numbering) (protein)
chain: B4 chain with A162F, R222A
- Gpr124/Reck/Fz/LRP-mediated Wnt signaling activity, % of wild-type mature full-length Wnt7a: at least 70%

B13: K229A: single-residue variant of full-length mWnt7a (precursor numbering) (protein)
chain: B1 chain with A44F, K198A
modifications: human Wnt7a variant K198A
- Gpr124/Reck/Fz/LRP-mediated Wnt signaling activity, % of wild-type mature full-length Wnt7a: at least 70%

B14: K231A: single-residue variant of full-length mWnt7a (precursor numbering) (protein)
chain: B4 chain with A162F, K231A
- Gpr124/Reck/Fz/LRP-mediated Wnt signaling activity, % of wild-type mature full-length Wnt7a: at least 70%

B15: V236A: single-residue variant of full-length mWnt7a (precursor numbering) (protein)
chain: B4 chain with A162F, V236A
- Gpr124/Reck/Fz/LRP-mediated Wnt signaling activity, % of wild-type mature full-length Wnt7a: at least 70%
